Consider one substance from doi:10.1101/2023.10.20.563357.

No constants are given. Whether binding was seen depends on the method and setting. In cells and extracts the contact can be indirect. Some results given as binding are weak or reduced against the parent protein; the word gives no strength.

This test has as its target MBP-tagged PHF21A-c from insect cells (UniProt Q96BD5). Briefly: pull-down + SEC.

Consider “CoREST, recombinant from insect cells (from UniProt Q9UKL0 1-485)”, for which the binding entry is “binds”.
